Our source for the binding values is patent publication US20160090605A1 (ACADEMIA SINICA, published 2016).

Results are given in words; binding and its absence hold for the method and conditions named. In cells and extracts the contact can be indirect. These calls come from enrichment with a bait or labelling near it, and not all partners need be listed. Tags and fused reporters may be left off the sequences shown.

For experiment [1], the target named is T1, YFP-AFL1 (Arabidopsis) (UniProt Q9LHD9).
T1 sequence: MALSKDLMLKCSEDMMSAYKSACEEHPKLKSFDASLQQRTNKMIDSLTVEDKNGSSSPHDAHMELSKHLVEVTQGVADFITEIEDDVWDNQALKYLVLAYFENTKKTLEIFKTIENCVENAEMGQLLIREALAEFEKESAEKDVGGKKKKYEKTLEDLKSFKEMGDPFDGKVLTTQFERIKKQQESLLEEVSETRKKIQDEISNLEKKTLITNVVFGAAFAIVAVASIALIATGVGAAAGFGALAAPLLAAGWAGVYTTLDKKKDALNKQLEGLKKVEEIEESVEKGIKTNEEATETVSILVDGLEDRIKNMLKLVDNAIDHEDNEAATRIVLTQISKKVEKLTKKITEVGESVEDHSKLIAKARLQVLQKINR
Kind of experiment: IP/MS of YFP-AFL1 (GFP-trap, mass spectrometry).

For experiment [2], the target named is T1, YFP-AFL1 (Arabidopsis). Kind of experiment: immunoprecipitation of YFP-AFL1, mass spectrometry.

B1: ER-body protein NAI2 (protein)
chain: QDEGTGSLSTLDLIEHEYQTSVNSLQGNEAVDQTETSGQKNSTVSDNNTISLSLSEEPALETLKESVDTSAELGAVTDEVDKPSSMLDHIELEFEAHINELKEAGSDGINKVEESKDDEEAARRHKMLEAIEREFEAAHAGFEQLKTDDSAQGLDDEQSAKRQSMLDEIERDFEAATKGLEQLKADDLTGINDEEHAAKRQKMLEEIEREFEEATKGLEELRHSTSSTDDEAQSAKRQNMLDEIEREFEAATSGLKELKINAHTVKDDVDDKEQDAKRQSMLDAIEREFEAVTESFKQLEDIADNKAEGDDESAKRQSMLDEIEREFEAATNSLKQLNLDDFSEGDDSAESARRNSMLEAIEREFEAATKGLEELKANDSTGDKDDDEHVARRKIMLEAIEREFEAATKGLEELKNESEQAENKRNSMLEAFEREFEAATNAKANGENSAKNPSTISTTVQKSSGGYNAGLEGLLKPADGVCGCFNKDKDGLQADTDSSINIAEILAEESKLQGSGTSRLTTSLNNLVDTHRKETSSKVGSVLGSSSSVTSTTSESAATSESIESLKQTLRKLRGLSARDLVNHPNFDAIIAAGTRYEVLSSASIGYISLLAKYKTVIKEGLEASQRVQIAQTRAKLLKETAMEKQRTVDSVFAAAKTTAQRGDALHIRIVAIKKLLAKLEAEKVDVDSKFTSLTTSLSELLKEASQAYEEYHEAVHKAKDEQAAEEFAVETTKRAEHIWVEFLSSLN
With B1, the binding entry in the experiment with YFP-AFL1 (Arabidopsis) [1] and with YFP-AFL1 (Arabidopsis) [2] was “binds” throughout.

B2: At14a-like1 (AFL1), full length (other)
chain: T1 sequence
notes: Full-length AFL1; In mbSUS it was a split-ubiquitin fusion expressed in yeast; In BiFC it was a fusion to a YFP half (YFPN or YFPC, the latter MYC-tagged); This entry also stands for native AFL1 in seedling extracts (47 kDa band; co-purified with YFP-AFL1); also called AT3G28270; Full Length AFL1
As to B2, in the experiment with YFP-AFL1 (Arabidopsis) [1], the binding entry was “binds”.

B3: Protein Disulfide Isomerase5 (PDI5) (enzyme)
chain: EETETKEFVLTLDHTNFTDTINKHDFIVVEFYAPWCGHCKQLAPEYEKAASALSSNVPPVVLAKIDASEETNREFATQYEVQGFPTIKIFRNGGKAVQEYNGPREAEGIVTYLKKQSGPASAEIKSADDASEVVSDKKVVVVGIFPKLSGSEFDSFMAIAEKLRSELDFAHTSDAKLLPRGESSVTGPVVRLFKPFDEQFVDSKDFDGEALEKFVKESSIPLITVFDKDPNNHPYVIKFFESTNTKAMLFINFTGEGAESLKSKYREVATSNKGQGLSFLLGDAENSQGAFQYFGLEESQVPLIIIQTADDKKYLKTNVEVDQIESWVKDFKDGKIAPHKKSQPIPAENNEPVKVVVSDSLDDIVLNSGKNVLLEFYAPWCGHCQKLAPILDEVAVSYQSDSSVVIAKLDATANDFPKDTFDVKGFPTIYFKSASGNVVVYEGDRQRESLYLFIRFLYVHSSEQ
Consider B3, for which the binding result with YFP-AFL1 (Arabidopsis) [1] and with YFP-AFL1 (Arabidopsis) [2] was “binds” each time.
